# Laboratory results: PubChem BioAssay (NCATS)
# Inconclusive results, whose numbers are uncertain, are shown with a selection of clear calls. A potency beside an inconclusive call is a rough fit, not a confirmed value. The source made the active and inactive calls. Calls come from the whole dose curve; as a rule, active = well fitted cell-killing curve with a large enough effect; inconclusive = small, poorly fitted or top-dose-only effect, or effect the other way; inactive = no such curve, though single readings can be large or run the other way.
# Test: Quantitative High-Throughput drug screen in 47 multiple myeloma cell lines against the NCATS MIPE library collection: KMS34_JCRB cell viability assay (AID 1918985); note: nearly all actives have a fitted effect of over 40% in size
# Conditions: KMS34 myeloma viability, CellTiter-Glo ATP luminescence, 48 h; series mostly up to 45.8 µM
# Excerpt: PI: Beverly A. Mock Ph.D.
# Laboratory of Cancer Biology and Genetics,
# Center for Cancer Research, National Cancer Institute,
# National Institute of Health, Bethesda, Maryland
# Drug resistance and disease progression are common in multiple myeloma (MM) patients, underscoring the need for new therapeutic combinations. […] We hypothesized that effective combinations would reduce MYC expression and enhance p16 activity. […] These preclinical data identify potentially useful drug combinations for evaluation in drug-resistant MM and reveal potential mechanisms of combined drug sensitivity.
# Described herein is the primary MIPE qHTS used to cherrypick compounds. Validated compounds were then further tested for potential synergistic activiy.
# [1] Peat TJ, Gaikwad SM, Dubois W, Gyabaah-Kessie N, Zhang S, Gorjifard S, Phyo Z, Andres M, Hughitt VK, Simpson RM, Miller MA, Girvin AT, Taylor A, Williams D, D'Antonio N, Zhang Y, Rajagopalan A, Flietner E, Wilson K, Zhang X, Shinn P, Klumpp-Thomas C, McKnight C, Itkin Z, Chen L, Kazandijian D, Zhang J, Michalowski AM, Simmons JK, Keats J, Thomas CJ, Mock BA. Drug combinations identified by high-throughput screening promote cell cycle transition and upregulate Smad pathways in myeloma. Cancer Lett. 2023 Aug 1;568:216284. doi: 10.1016/j.canlet.2023.216284. Epub 2023 Jun 24. PMID: 37356470; PMCID: PMC10408729.
# SEQUENCE No. (e.g., 1, 2, 3, etc.); […] (e.g., Cells, Incubation, Reagent, etc.); VALUE and DESCRIPTION.
# 1; Cells; 5 uL; white, solid bottom 1536-well Greiner assay plate.
# 2; Compounds; 23 nL; Kalypsis pin tool (Wako USA) equipped with a 1536-well pin head to transfer to the assay plates.
# 3; Incubation; 48 hours; 37C incubation.
# 4; Reagent;5uL; CellTiter Glo (Promega).
# 5; Detector; 425V; Luminescence; Viewlux PerkinElmer.
# NOTES (numbers refer to Sequence numbers above)
# 1. The cell-based screening methods employed in this study were like those previously published. Briefly, the corresponding myeloma cell lines were screened in 1,536-well plates with 500 cells, 5-uL per well for inhibition of cell viability (assessed by measuring ATP levels with CellTiterGlo).
# 2. NCATS MIPE 4.0 library of approved and investigational drugs were added using the Kalypsis pin tool. Wells treated with DMSO only for 100% viability and media only for 0% viability were used as controls.
# 3. The assay plates were covered and incubated for 48 hours in a 37C, 5% CO2 incubator with controlled humidity.
# 4. After 48 hours, CellTilter-GloTM luminescent substrate mix (Promega) reagent was added to the assay plate and plates we incubated for 5 min at room temperature.
# 5. Signal was measured as median relative luminescence units on a ViewLux (PerkinElmer) multiplate reader.
# [1] Heske CM, Davis MI, Baumgart JT, Wilson K, Gormally MV, Chen L, Zhang X, Ceribelli M, Duveau DY, Guha R, Ferrer M, Arnaldez FI, Ji J, Tran HL, Zhang Y, Mendoza A, Helman LJ, Thomas CJ. Matrix Screen Identifies Synergistic Combination of PARP Inhibitors and Nicotinamide Phosphoribosyltransferase (NAMPT) Inhibitors in Ewing Sarcoma. Clin Cancer Res. 2017 Dec 1;23(23):7301-7311. doi: 10.1158/1078-0432.CCR-17-1121. Epub 2017 Sep 12. PMID: 28899971; PMCID: PMC6636827.
# Potency is the fitted concentration of half-maximal effect.
row,Compound,Potency
1,Cc1cc(NC(=O)Nc2ccc(N(C)C)cc2)c2cc(F)cc(F)c2n1,"inconclusive: 23.5 µM [cytotoxic, partial curve, poor fit]"
2,CN1C(C(=O)Nc2ccccn2)=C(O)c2sc(Cl)cc2S1(=O)=O,active: 2.96 µM
3,O=C1NC(=O)C(c2cnc3ccccn23)=C1c1cn2c3c(cccc13)CN(C(=O)N1CCOCC1)CC2,"inconclusive: 0.0023 µM [cytotoxic, full curve]"
4,CC(C)n1cnc2c(NCCc3ccc(O)cc3)nc(-c3csc4ccccc34)nc21,active: 20.9 µM
5,COc1cc(F)c(C(C)C)cc1-c1ccc(C(F)(F)F)cc1CN1C(=O)O[C@H](c2cc(C(F)(F)F)cc(C(F)(F)F)c2)[C@@H]1C,"inconclusive: 18.7 µM [cytotoxic, partial curve, poor fit]"
6,CCN[C@H]1C[C@H](C)S(=O)(=O)c2sc(S(N)(=O)=O)cc21,inactive
7,NC(=O)Nc1cc(-c2ccc(CN3CCOCC3)cc2)sc1C(N)=O,active: 4.18 µM
8,NC(=O)NO,"inconclusive: 20.9 µM [cytotoxic, partial curve, poor fit]"
9,CC1(CN2CCC(n3c(=O)[nH]c4ccccc43)CC2)OCc2ccccc2-n2cccc21 (stereo not given),"inconclusive: 20.9 µM [cytotoxic, single point]"
10,COc1ccccc1OCC(O)COC(N)=O (stereo not given),inactive
11,CS(=O)(=O)c1ccc([C@@H](O)[C@@H](CO)NC(=O)C(Cl)Cl)cc1,"inconclusive: 2.96 µM [cytotoxic, full curve, poor fit]"
12,Cc1nc2cnc3ccc(C#Cc4cccnc4)cc3c2n1-c1ccc(C(C)(C)C#N)cc1,"inconclusive: 0.132 µM [cytotoxic, full curve]"
13,Nc1nc2c(c(=O)[nH]1)N(C=O)[C@H](CNc1ccc(C(=O)N[C@@H](CCC(=O)O)C(=O)O)cc1)CN2,inactive
14,CCOC(=O)[C@H](CCc1ccccc1)N[C@H]1CS[C@H](c2cccs2)CN(CC(=O)O)C1=O,active: 10.5 µM
15,CNNCc1ccc(C(=O)NC(C)C)cc1,"inconclusive: 11.8 µM [cytotoxic, single point]"
16,CN1CCc2c(n(Cc3ccc(C(=O)NO)cc3)c3ccccc23)C1,active: 16.6 µM
17,NC[C@H](O)c1ccc(O)c(O)c1,inactive
18,C#C[C@]1(O)CC[C@@H]2[C@@H]3CCc4cc(O)ccc4[C@H]3CC[C@@]21C,"inconclusive: 33.2 µM [cytotoxic, single point]"
19,COc1cc(Nc2ncc(F)c(Nc3ccc4c(n3)N(COP(=O)(O)O)C(=O)C(C)(C)O4)n2)cc(OC)c1OC,"inconclusive: 11.8 µM [cytotoxic, partial curve, poor fit]"
20,NC[C@H]1O[C@H](O[C@H]2[C@@H](O)[C@@H](O[C@H]3O[C@H](CO)[C@@H](O)[C@H](N)[C@@H]3O)[C@H](N)C[C@@H]2N)[C@H](N)C[C@H]1O,inactive

# Two entries picked at random from those above, as already listed:
row,Compound,Potency
13,Nc1nc2c(c(=O)[nH]1)N(C=O)[C@H](CNc1ccc(C(=O)N[C@@H](CCC(=O)O)C(=O)O)cc1)CN2,inactive
11,CS(=O)(=O)c1ccc([C@@H](O)[C@@H](CO)NC(=O)C(Cl)Cl)cc1,"inconclusive: 2.96 µM [cytotoxic, full curve, poor fit]"

# Further compounds follow:

row,Compound,Potency
1,COc1cc2c(Oc3ccc4[nH]c(C)cc4c3F)ncnc2cc1OCCCN1CCCC1,"inconclusive: 26.4 µM [cytotoxic, single point]"
2,O=S(=O)(O)c1ccc2cc(N=Nc3cc(S(=O)(=O)O)c4cccnc4c3O)ccc2c1,"inconclusive: 13.2 µM [cytotoxic, partial curve, poor fit]"
3,Clc1ccc(Nc2nnc(Cc3ccncc3)c3ccccc23)cc1,"inconclusive: 16.6 µM [cytotoxic, partial curve, poor fit]"
4,CC(C(=O)O)c1ccc2c(c1)CC(=O)c1ccccc1S2 (stereo not given),"inconclusive: 2.35 µM [rising, partial curve, poor fit]"
5,Cc1ncc(-c2ccnc(Nc3ccc(S(C)(=O)=O)cc3)n2)n1C(C)C,active: 1.87 µM
6,CN(Cc1cnc2nc(N)nc(N)c2n1)c1ccc(C(=O)N[C@@H](CCC(=O)O)C(=O)O)cc1,active: 0.0935 µM
7,O=C1Nc2ccc(I)cc2C1=Cc1cc(Br)c(O)c(Br)c1,"inconclusive: 18.7 µM [cytotoxic, partial curve, poor fit]"
8,CCC(C)(C)C(=O)O[C@H]1C[C@@H](C)C=C2C=C[C@H](C)[C@H](CC[C@@H]3C[C@@H](O)CC(=O)O3)[C@H]21,"inconclusive: 33.2 µM [cytotoxic, single point]"
9,COC(=O)c1ccc2c(C(=Nc3ccc(N(C)C(=O)CN4CCN(C)CC4)cc3)c3ccccc3)c(O)[nH]c2c1,active: 18.7 µM
10,Nc1[nH]nc2nnc(-c3c(-c4ccccc4)nn4ccccc34)cc12,"inconclusive: 9.35 µM [cytotoxic, partial curve]"
11,NCCCC(O)(P(=O)(O)O)P(=O)(O)O,"inconclusive: 0.0042 µM [rising, full curve, poor fit]"
12,C[C@@H](Oc1cc(-c2cnn(C3CCNCC3)c2)cnc1N)c1c(Cl)ccc(F)c1Cl,active: 11.8 µM
13,CC(C)c1cnn2c(NCc3ccccc3)cc(NCCCCCCN)nc12,active: 18.7 µM
14,O=C(Nc1ccc(Oc2ccnc3[nH]ccc23)c(F)c1)c1cccn(-c2ccc(F)cc2)c1=O,"inconclusive: 1.66 µM [cytotoxic, full curve, poor fit]"
15,CC(C)c1cnn2c(NCc3ccccc3)cc(N[C@@H](CO)[C@H](O)CO)nc12,active: 0.662 µM
16,CCn1c(-c2nonc2N)nc2cncc(CNC3CCNCC3)c21,"inconclusive: 26.4 µM [cytotoxic, single point]"
17,Cc1cc(CS(=O)(=O)c2ccccc2)cc(OCc2ccc(CN3CCC[C@H]3CO)cc2)c1,inactive
18,Nc1ncnc2c1ncn2[C@@H]1O[C@H](CO)[C@@H](O)[C@@H]1O,active: 18.7 µM
19,Clc1cccc(-c2nnnn2Cc2cccnc2)c1Cl,inactive
20,COc1cccc2c(NCc3ccccc3)nc(-n3c(N)nc4ccccc43)nc12,active: 6.62 µM
